# Measured values published in PubChem BioAssay AID540336 (Broad Institute, 2011).
# Sequences of proteins named here, by UniProt entry; tags and fusion partners are left off.
# UniProt Q5AAJ8, whole entry, looked up: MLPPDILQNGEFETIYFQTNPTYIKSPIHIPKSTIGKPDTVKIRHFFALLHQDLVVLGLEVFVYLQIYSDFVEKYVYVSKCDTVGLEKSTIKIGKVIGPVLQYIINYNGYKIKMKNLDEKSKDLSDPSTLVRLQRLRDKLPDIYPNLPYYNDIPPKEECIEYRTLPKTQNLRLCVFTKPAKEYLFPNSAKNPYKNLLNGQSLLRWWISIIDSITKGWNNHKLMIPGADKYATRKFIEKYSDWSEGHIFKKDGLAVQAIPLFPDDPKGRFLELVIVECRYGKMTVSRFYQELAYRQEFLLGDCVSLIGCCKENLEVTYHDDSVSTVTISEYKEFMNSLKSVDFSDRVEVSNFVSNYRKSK
# Screen size: about 330,000 compounds; about 520 (0.16%) were called active. This list was built around the results that the source calls inconclusive (neither active nor inactive); the mix of calls is not that of the screen.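 Rule for the calls: active = inhibition of at least 50% in every replicate; inconclusive = best replicate reaches 50% inhibition but some replicates fall short; inactive = the rest.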
# Target: Histone acetyltransferase RTT109 (Candida albicans (strain SC5314 / ATCC MYA-2876)) (UniProt Q5AAJ8)
# Test: Rtt109-Vps75 histone acetyltransferase blockade – biochemical, ThioGlo CoA-SH fluorescence, plate reader, primary screen (AID 540336)
# Conditions: purified Rtt109/Vps75, ThioGlo CoA-SH fluorescence, 4 h; at 34.9 µM; active compounds read high
row,Compound,inhibition
1,C=CCOC(=O)/C(=C\c1cccc2ccccc12)NC(=O)c1ccccc1,inconclusive: 32.1%
2,CCCCCNC(=O)C1CC=CCC1C(=O)O (centres undefined),inconclusive: 26.4%
3,Cc1c(Cl)cccc1NC(=S)Nc1ccc2[nH]c(=O)[nH]c2c1,inactive: -3.78%
4,O=C(COc1ccccc1Cl)Nc1ccc2oc(=O)ccc2c1,inactive: 7.46%
5,CCOc1cc(/C=N\n2nnnc2N)ccc1O,inactive: -12.6%
6,O=C(c1cc(COc2cccc(C(F)(F)F)c2)on1)N1CCC(Oc2cccnc2)CC1,inconclusive: 35.1%
7,CCC(CO)Nc1nc2ccc(Cl)cc2c2ccccc12 (centres undefined),inconclusive: 27.4%
8,O=C(O)c1cccc(-n2sc3ccccc3c2=O)c1,active: 178%
9,COc1ccccc1Nc1nnc(SCc2nnc(-c3cc(OC)c(OC)c(OC)c3)o2)s1,inconclusive: 36.9%
10,CC(C)(C)c1cc(C(=O)N/N=C/c2ccc(-c3ccccc3[N+](=O)[O-])o2)n[nH]1,inconclusive: 51.5%
11,Cn1ccnc1Sc1cc(NCCCO)c([N+](=O)[O-])c2nonc12,inconclusive: 62.5%
12,Oc1cc2c(cc1O)[C@H]1c3ccc(O)c(O)c3OC[C@@]1(O)C2,inconclusive: 151%
13,CC1CCN(Cc2c(C(=O)N/N=C/c3cccc(Cl)c3)nnn2-c2nonc2N)CC1,inconclusive: 51.4%
14,COc1cc(C2NC(=O)C(C#N)=C(S)N2c2ccc(C)cc2)ccc1OC(C)C (centres undefined),inconclusive: 51.1%
15,COc1ccc(/C=C2\Sc3ccc(C(=O)NCCCN4CCCC4)cc3N(C)C2=O)cc1OC,inconclusive: 45.9%
16,Cc1ccc(S(=O)(=O)N2[C@@H](c3cccc(Cl)c3)C(C(=O)O)=CC[C@H]2c2ccc(Cl)c(Cl)c2)cc1,inconclusive: 36.4%
17,COc1ccc(-c2cn3cccnc3n2)cc1NC(=O)c1cccs1,inconclusive: 31.6%
18,N/C(=N\c1nc2ccccc2o1)NC(=O)c1ccc(F)cc1,inactive: 8.2%
19,COc1ccccc1NC(=O)Nc1nc(CC(=O)Nc2cccc(F)c2)cs1,inconclusive: 31.7%
20,Cc1ccc(S(=O)(=O)NC(N)=NCCc2ccccc2)cc1C,inconclusive: 31.2%
21,Cc1c(C(=O)c2ccc(N(C)C)cc2)c2ccccn2c1CCC#N,inactive: 2.32%

row,Compound,inhibition
1,CC1=C(C)/C(=N\OS(=O)(=O)c2ccc(C)cc2)C=CC1=O,active: 109%
2,Cc1ccc(C)c(N2CCN(S(=O)(=O)c3ccc4[nH]c(=O)c(=O)[nH]c4c3)CC2)c1,inconclusive: 39.1%
3,Fc1ccc(NC(=S)NCCN2CCOCC2)c(F)c1F,inactive: -7.38%
4,Cn1c(COc2ccc(F)cc2)nnc1SCC(=O)NC1CC1,inconclusive: 24.6%
5,Cc1cn(CC(C)C)c(=O)n(-c2ccccc2)c1=O,inactive: -1.68%
6,CC(O)CNCCNCc1cccs1 (centres undefined),inactive: 2%
7,CC[C@]1(O)CC2CN(CCc3c([nH]c4ccccc34)[C@@](C(=O)OC)(c3cc4c(cc3OC)N(C=O)[C@H]3[C@@](O)(C(=O)OC)[C@H](OC(C)=O)[C@]5(CC)C=CCN6CC[C@]43[C@@H]65)C2)C1 (some centres undefined),inconclusive: 33%
8,Fc1ccc(NC(=S)Nc2ccc(Br)cc2)cc1,active: 54.9%
9,COc1ccccc1N(C)S(=O)(=O)c1ccc(C(=O)N2CCCC(C(F)(F)F)C2)cc1 (centres undefined),inconclusive: 31.2%
10,COc1ccc(C2c3sc(=O)[nH]c3SC3C4CCC(C4)C23)cc1OC (centres undefined),inconclusive: 65.4%
11,CCCc1nnc(NC(=O)c2nc(S(=O)(=O)Cc3cccc(C)c3)ncc2Cl)s1,inconclusive: 35.2%
12,O=C(C1CC(=O)N(c2ccc3c(c2)OCCO3)C1)N1CCN(c2ccccc2O)CC1 (centres undefined),inactive: 17%
13,CCOc1ncccc1C(=O)Nc1ccc2nc(C)sc2c1,inconclusive: 24.7%
14,Cc1sc2nc(CSc3ccccc3)nc(N3CCC(C(N)=O)CC3)c2c1C,inactive: -8.67%
15,CC(=O)N1CCN(c2ncnc3ccccc23)CC1,active: 57.6%
16,O=C(Cn1nnc2ccccc2c1=O)Nc1ccc2c(c1)CCC2,inconclusive: 31.3%
17,CCOC(=O)c1sc2nc(CSc3ccccc3)nc(N3CCCN(C)CC3)c2c1C,inconclusive: 62.7%
18,O=C(O)c1ccc(/C=C2\SC(=S)N(NC(=O)c3ccccc3[N+](=O)[O-])C2=O)cc1,inactive: -3.05%
19,Cc1cc(C)nc(N/N=C/c2ccccc2)n1,inactive: 2.75%
20,C#CCOCCOCCOCCNc1nc(N2CCN(C(=O)CCCCCCCCCCNC(=O)Cn3cc(CCCCCN)nn3)CC2)nc(N2CCN(C(=O)CCCCCCCCCCNC(=O)[C@H]([C@@H](C)CC)n3cc(CCCCN=C(N)N)nn3)CC2)n1,inconclusive: 56.6%
21,OCC[C@@H]1C[C@@H](O)[C@H](O)[C@@]2(Cc3ccccc3CCO2)O1,inactive: -4.57%

row,Compound,inhibition
1,O=C(NCCCN1CCCC1=O)c1ccc(OC(F)(F)F)cc1,active: 60.6%
2,CCCCNC(=O)c1ccc(NC(C)=O)c(Cl)c1,inconclusive: 16.5%
3,COc1cccc(NC(=O)/C=C/c2ccccc2[N+](=O)[O-])c1,inconclusive: 36.1%
4,Cc1cc(N2CCN(C(=O)c3cccs3)CC2)c(F)cc1[N+](=O)[O-],inconclusive: 20.2%
5,O=C(CSc1nnc(Nc2ccccc2)s1)Nc1ccc(S(=O)(=O)N2CCOCC2)cc1,inconclusive: 35.4%
6,CSc1nnc(NC(=O)c2nc(S(=O)(=O)Cc3cccc(C)c3)ncc2Cl)s1,inconclusive: 29.8%
7,O=C(O)CCCC(=O)N1N=C(c2ccco2)CC1c1ccco1 (centres undefined),inconclusive: 75.7%
8,COc1ccccc1NC(=O)/C=C/C(N)=O,active: 121%
9,COc1ccc(S(=O)(=O)c2ccc(OCC3CO3)cc2)cc1 (centres undefined),inactive: 11.2%
10,C/C(=C/C(=O)Nc1cccc(F)c1)N1CCCC1,inactive: 3.46%
11,CCCOC(=O)c1ccc(Oc2cn[nH]c2-c2ccc(OCC)cc2O)cc1,inconclusive: 20.9%
12,Cc1cc(C(C)(C)CC(C)(C)C)ccc1OCCOCC[N+](C)(C)Cc1ccccc1,active: 56%
13,CCOc1ccccc1/C=C/c1onc(C)c1S(=O)(=O)N1CCC(C(=O)N2CCCCCC2)CC1,inactive: -8.36%
14,Cc1ccc(C2=NC3(CCCC3)N=C2SCC(=O)Nc2ccc3c(c2)OCCO3)cc1,inconclusive: 43.3%
15,CC(C)(C)NC(=O)C(=O)NCc1ccncc1,inconclusive: 24.5%
16,O=C(O)CC(c1ccc(Cl)cc1)n1cccc1 (centres undefined),inconclusive: 22.2%
17,COc1cccc(CNCc2cccc(OC)c2O)c1O,inactive: -3.23%
18,CN(Cc1ccc(F)cc1)C(=O)c1cccc(S(=O)(=O)N2CCN(Cc3ccccc3)CC2)c1,inconclusive: 32.2%
19,COc1ccc(NC(=O)c2cccc(Cn3cc(Br)cn3)c2)cn1,inconclusive: 29.7%
20,COc1ccc(CN(CCC#N)C(=S)NC(=O)c2ccccc2)cc1,inactive: 6.86%
21,CCn1cc([N+](=O)[O-])c(C(=O)Nc2nc(-c3ccc(C)cc3)c(C)s2)n1,inactive: -5.22%

# As entered above.
# inhibition with `Cc1ccc(C)c(N2CCN(S(=O)(=O)c3ccc4[nH]c(=O)c(=O)[nH]c4c3)CC2)c1` reads inconclusive: 39.1%
# inhibition with `CC1CCN(Cc2c(C(=O)N/N=C/c3cccc(Cl)c3)nnn2-c2nonc2N)CC1` reads inconclusive: 51.4%

# Remaining list, next part:

row,Compound,inhibition
1,Cn1c(-c2ccccc2)c(C#Cc2ccc(N)cc2)c2ccccc21,inactive: -1.91%
2,CC1(C)N=C(SCC(=O)Nc2ccc(Cl)cc2)C(c2ccc(Cl)cc2)=N1,inconclusive: 34.9%
3,CCCCOc1ccc(C2C(C(=O)c3ccc(C)o3)=C(O)C(=O)N2Cc2ccco2)cc1 (centres undefined),active: 55.5%
4,COc1ccc2nc(C)cc(SCC(=O)N/N=C/c3ccc(O)c(O)c3)c2c1,inconclusive: 32.2%
5,CCOC(=O)c1c(CSc2ccc(C)cc2)n(C)c2cc(Br)c(O)c(CN(C)C)c12,inconclusive: 40.5%
6,COc1ccc(NC(=O)CN(C)C(=O)c2ccc(NC3CC3)c([N+](=O)[O-])c2)cc1,inconclusive: 23.8%
7,CCOC(=O)C(C)N1C(=O)S/C(=C/c2ccc3c(c2)n(C)c(=O)n3C)C1=O (centres undefined),active: 53.7%
8,O=C(O)c1ccccc1C(=O)N1N=C2/C(=C/c3cccc([N+](=O)[O-])c3)CCCC2C1c1cccc([N+](=O)[O-])c1 (centres undefined),inconclusive: 61.7%
9,COc1ccc(C(=O)/C=C(\C)Nc2ccc(NC(C)=O)cc2)cc1,inconclusive: 122%
10,Cc1ccc(SC(CC(=O)c2ccc(C(C)(C)C)cc2)C(=O)O)cc1 (centres undefined),active: 142%
11,Cc1ccc(C2(C)NC(=O)N(CC(=O)Nc3ccc(-c4nc5ccc(C)cc5s4)cc3)C2=O)cc1 (centres undefined),inactive: -2.29%
12,COc1cc2c(cc1OC)-c1cc3ccc(OC)c(OC)c3c[n+]1CC2,inconclusive: 38.3%
13,CSCC[C@H](NC(=O)C1CCN(S(=O)(=O)c2ccc(C)cc2)CC1)C(=O)NCc1ccco1,inactive: 3.44%
14,COc1ccccc1CCC(=O)N(Cc1ccccc1)c1c(N)n(Cc2ccccc2)c(=O)[nH]c1=O,inconclusive: 62.4%
15,Oc1ccc(/C=N/Nc2ccnc3cc(Cl)ccc23)cc1O,inconclusive: 31.3%
16,O=C(CSc1ccc(-c2nc3ccccc3[nH]2)cn1)Nc1ccc(S(=O)(=O)NC2CC2)cc1,inactive: 5.74%
17,Cc1cc(C)cc(N=Cc2[nH]c3ccc(Br)c(Cl)c3c2O)c1,inconclusive: 61.6%
18,COc1ccc2nc(N3C(=O)C(O)=C(C(=O)c4ccco4)C3c3ccc(C)o3)sc2c1 (centres undefined),inconclusive: 37.1%
19,CC1=C(C(=O)Nc2ccc(C)cc2)C(c2ccc(C)o2)C2=C(CC(C)(C)CC2=O)N1 (centres undefined),inconclusive: 34.9%
20,Cc1cc(CNC(=O)c2ccc3oc(C(C)C)nc3c2)nn1C,inactive: 11.8%
21,CCCn1c(=O)c2ccccc2n2c(Sc3nnnn3-c3ccccc3)nnc12,inconclusive: 30.7%

# Of the compounds above, 12 contain a Cl atom.
row,Compound,inhibition
3,Cc1c(Cl)cccc1NC(=S)Nc1ccc2[nH]c(=O)[nH]c2c1,inactive: -3.78%
4,O=C(COc1ccccc1Cl)Nc1ccc2oc(=O)ccc2c1,inactive: 7.46%
7,CCC(CO)Nc1nc2ccc(Cl)cc2c2ccccc12 (centres undefined),inconclusive: 27.4%
13,CC1CCN(Cc2c(C(=O)N/N=C/c3cccc(Cl)c3)nnn2-c2nonc2N)CC1,inconclusive: 51.4%
16,Cc1ccc(S(=O)(=O)N2[C@@H](c3cccc(Cl)c3)C(C(=O)O)=CC[C@H]2c2ccc(Cl)c(Cl)c2)cc1,inconclusive: 36.4%
11,CCCc1nnc(NC(=O)c2nc(S(=O)(=O)Cc3cccc(C)c3)ncc2Cl)s1,inconclusive: 35.2%
2,CCCCNC(=O)c1ccc(NC(C)=O)c(Cl)c1,inconclusive: 16.5%
6,CSc1nnc(NC(=O)c2nc(S(=O)(=O)Cc3cccc(C)c3)ncc2Cl)s1,inconclusive: 29.8%
16,O=C(O)CC(c1ccc(Cl)cc1)n1cccc1 (centres undefined),inconclusive: 22.2%
2,CC1(C)N=C(SCC(=O)Nc2ccc(Cl)cc2)C(c2ccc(Cl)cc2)=N1,inconclusive: 34.9%
15,Oc1ccc(/C=N/Nc2ccnc3cc(Cl)ccc23)cc1O,inconclusive: 31.3%
17,Cc1cc(C)cc(N=Cc2[nH]c3ccc(Br)c(Cl)c3c2O)c1,inconclusive: 61.6%
